# Patent publication US7029900
# Construct, isoform or probe ends are uncertain for at least one entry.
# Test system: BtgZI restriction endonuclease (Bacillus thermoglucosidasius 36A)
# Assay: enzyme reaction in vitro
# Details: run-off sequencing of cleaved plasmid; NEBuffer 4, 37 C 1 h; purified native protein; only the site is given
row,Sequence,activity on this sequence
1,CGATGAGAATGCGATGTTGGTGGCCAAAAGCAATTATCC (double strand),active
2,TTCTTTCTGCGCGGTCAACTTTGTACCAATCATACATCGCCTGAG (double strand),active
